Data reported in paper PMC4431734, “Characterization of a Single-Stranded DNA-Binding-Like Protein from Nanoarchaeum equitans—A Nucleic Acid Binding Protein with Broad Substrate Specificity”.

Target: T1, TaqSSB (UniProt Q9KH06)
T1 sequence (looked up, limits assumed): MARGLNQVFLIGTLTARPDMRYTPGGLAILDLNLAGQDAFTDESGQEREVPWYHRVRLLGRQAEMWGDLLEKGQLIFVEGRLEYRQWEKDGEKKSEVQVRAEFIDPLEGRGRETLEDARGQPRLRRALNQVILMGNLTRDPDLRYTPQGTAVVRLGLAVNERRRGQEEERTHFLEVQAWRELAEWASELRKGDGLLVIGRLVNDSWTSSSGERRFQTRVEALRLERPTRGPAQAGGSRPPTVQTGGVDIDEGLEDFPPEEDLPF
Assay: EMSA
Conditions: activity half-life 10 min at 85 C, 0 min at 100 C, EMSA: 20 mM Tris-HCl pH 7.5, 100 mM NaCl, 1 mM EDTA, 25 C, recombinant protein, label: 5' …, single-stranded DNA

TTTTTTTTTTTTTTTTTTTTTTTTTTTTTTTTTTT [(dT)35]
binding result: binds

For at least one entry, the source does not settle the construct or the ends of the probe. At least one verdict was read from the data and is not stated in words by the source. Where a protein sequence is shown, tags need not be part of it.
